We go through 102 compounds from the supplement of paper PMC12578635.

SMILES strings stand for the structures. ± gives the standard deviation of the averaged measurements. The list shows a part of the results. Most values come without repeats; read them as rough.

In the test the test system is RAW 264.7 macrophages infected with S. aureus JE2-lux. The experiment in a line: host macrophage viability (CellTiter-Fluor) relative to DMSO vehicle; higher = more viable host cells. Conditions: 10 µM; treatment time 4 h; gentamicin 50 µg/ml.
For `N=C1N=C(O)NC(=O)/C1=N/Nc1cccc(Br)c1`, the host macrophage viability was found to be 111 ± 13%. Turning to `CCc1c(C)nc2ncnn2c1Sc1ccc(N(C)C)cc1`, the host macrophage viability is 130%. As to `O=C(Cc1ccc(Cl)cc1)Oc1coc(CSc2ncccn2)cc1=O`, the host macrophage viability was determined as 120%. With `Cn1c2ccc(F)cc2c2nnc(SCC(=O)N3CCCc4ccccc43)nc21`, the host macrophage viability was 96%. For `COC(=O)CSc1ncnc2c1cnn2-c1ccc(F)cc1`, the host macrophage viability was determined as 122%. On to `Cc1cccc2c(O)c(C(=O)NCCN3CCOCC3)cnc12`, for which the host macrophage viability was 120%. For `CCCCc1nc(SCc2cccc(C(F)(F)F)c2)c2c(=O)n(C)c(=O)n(C)c2n1` the value was 122%.

With `O=C(CSC1=NC2(CCCCC2)N=C1c1ccccc1)Nc1ccc2c(c1)OCCO2`, the host macrophage viability was 129%. On to `COc1ccc(Cl)cc1NC(=O)CSc1nc2c(c(=O)n1C)SC(C)C2` (configuration not stated), for which the host macrophage viability amounted to 97.3%. As for `COC(=O)c1sccc1N1Cc2ccncc2C1=O`, the host macrophage viability came out at 122%. `Cc1ccc(NC(=O)c2ccc3nnc(SCC(=O)NCc4ccc(Cl)cc4)n3c2)cc1`: the host macrophage viability was 104%. With `COc1ccc(NC(=O)CSc2nnc3ccc(S(=O)(=O)c4ccccc4)nn23)cc1`, the host macrophage viability was found to be 96.1%. For the compound `C=CCOc1ccccc1NC(=O)c1ccc2c(c1)nnn2C1CCCCC1`, the host macrophage viability is 119%.

With `Cc1ccc2nc(SCC(=O)NCc3ccccc3)nc(=O)n2c1`, the host macrophage viability is 117%. As to `CCN(CC)c1ncc(C(=O)Nc2ccc(OC)cc2OC)c2ccccc12`, the host macrophage viability stood at 105%.

As for `NC(=O)c1cc2ccccc2o/c1=N\NC(=O)c1ccncc1`, the host macrophage viability was found to be 110 ± 11%. As for `CC(C)c1ccc(NC(=O)CCn2c(=O)oc3ccccc32)cc1`, the host macrophage viability turned out to be 116 ± 14%. On to `COc1ccc(N(CC(=O)NCCc2ccccc2)C(=O)c2csnn2)cc1`, for which the host macrophage viability worked out at 127%. On to `CCC1CCCCN1C(=O)Cn1nc(-c2cc(C)oc2C)cc(N)c1=O` (configuration not stated), for which the host macrophage viability was 106%. Turning to `COc1ccc(C(=O)Oc2coc(CSc3nc(C)cs3)cc2=O)cc1OC`, the host macrophage viability was 101%. As to `O=C(CSc1nnc2n(Cc3ccccc3)c3ccccc3n12)N1CCc2ccccc21`, the host macrophage viability was 117%. For `O=C(Nc1ccc(-c2ccc(NC(=O)c3cccs3)cc2)cc1)c1cccs1` the value was 134%; for `CCCCOC(=O)Nc1[nH]c(C)c(C(=O)OCC)c1C`, 130%. For `Brc1cccc2sc(N3CCCC3)nc12` the value was 110.5 ± 0.21%; for `CCC(=O)Nc1cccnc1-c1ccc(C(=O)Nc2ccc(OC)c(Cl)c2)cc1`, 115%; for `CCS(=O)(=O)Nc1ccc(-c2nnc(SCC(=O)Nc3cccc(O)c3)o2)cc1`, 106%. Turning to `Cc1cc2nc(C3CCN(C(=S)Nc4ccc(F)cc4)CC3)[nH]c2cc1C`, the host macrophage viability amounted to 101%. Take `O=C(CSc1cnc2ccccc2n1)NCc1ccc2c(c1)OCO2`: the host macrophage viability was determined as 118%.

`Cn1c(=O)n(CC(=O)N2CCCC2)c(=O)c2cc(S(=O)(=O)Nc3cccc4c3CCCC4)ccc21`: the host macrophage viability is 103%.

For the compound `O=C1CCc2cc(S(=O)(=O)NC3CCN(Cc4ccccc4)C3)ccc2N1` (configuration not stated), the host macrophage viability is 120%.

For `O=C(Nc1c(C(=O)Nc2ccc3c(c2)OCCO3)oc2ccccc12)c1ccccc1C(F)(F)F`, the host macrophage viability was 103%. In the case of `Cc1cc2ccccc2n2c(=O)n(CCNC(=O)c3[nH]ncc3Br)nc12`, the host macrophage viability amounted to 106%. For the compound `CCOc1ccccc1-n1nnc(C(=O)Nc2ccc(C(=O)O)cc2)c1C`, the host macrophage viability stood at 113%. For `CCOc1ccc2ncc3c(-c4ccccc4)nn(CC(=O)Nc4cccc(F)c4)c3c2c1` the value was 127%; for `COc1ccc(S(=O)(=O)c2cn(CC(=O)Nc3ccccc3)c3ccc(Cl)cc3c2=O)cc1`, 126%. In the case of `Cc1cc2c(=O)n(Cc3ccco3)c(SCc3cc(O)[nH]n3)nc2s1`, the host macrophage viability came out at 114%. Turning to `CCOC(=O)C1=C(N)Oc2c(oc(CO)cc2=O)C1c1ccccc1` (configuration not stated), the host macrophage viability is 126%. For `O=S(=O)(NCCCc1nc2cc3ccccc3cc2[nH]1)c1ccc2c(c1)OCCO2` the value was 122%; for `CC1CCCN(S(=O)(=O)c2ccc(C(=O)Nc3nc4c(s3)CSc3ccccc3-4)cc2)C1` (configuration not stated), 117%; for `Cc1ccc(Oc2ccc(CNC(=O)C(C)N3C(=O)NC(C)(C)C3=O)cc2)cc1` (configuration not stated), 98.5%. Turning to `Cc1nn(C)c(C)c1CNC(=O)c1cc2c(-c3cccs3)nn(-c3ccccc3)c2n1C`, the host macrophage viability came out at 97.6%. On to `Cc1ccc(CNC(=O)CCCn2c(=S)[nH]c3ccc(Br)cc3c2=O)cc1`, for which the host macrophage viability stood at 129%. For `Cc1cc(C)c(NC(=O)CSC2=C(C#N)C(c3ccco3)CC(=O)N2)c(C)c1` (configuration not stated) the value was 119%; for `O=C(NCc1ccnc(N2CCCCC2)c1)Nc1cccc(Br)c1`, 115%. For `Cc1c(C(=O)NC(c2ccccc2)c2cccnc2)[nH]c2ccccc12` (configuration not stated), the host macrophage viability worked out at 125%. Turning to `O=C(NCCC1=CCCCC1)C(=O)Nc1ccc(F)c(F)c1`, the host macrophage viability was 114%. As for `Cc1cc(=O)[nH]c2ccc(S(=O)(=O)Nc3ccc(Br)cc3)cc12`, the host macrophage viability is 112%. Take `Cc1cc(F)ccc1S(=O)(=O)Oc1ccc2oc3ccccc3c2c1`: the host macrophage viability was 121%. On to `O=c1n(Cn2nnc3ccccc32)nc(C(F)(F)F)c2cccn12`, for which the host macrophage viability amounted to 95.9%. For the compound `Cc1cc(C)n2nc(C(=O)NCc3ccc(N4CCCC4=O)cc3)cc2n1`, the host macrophage viability was determined as 127%. For the compound `CC(=O)c1ccc(Nc2nc3c(S(=O)(=O)c4ccccc4)nnn3c3ccc(Cl)cc23)cc1`, the host macrophage viability stood at 136%. As for `N#Cc1c(N)nc(SCc2ccccc2)c(C#N)c1C1CCCCC1`, the host macrophage viability worked out at 107%. Regarding `CC1=C(C(=O)OCc2ccccc2)C(c2cccc(Br)c2)NC(=S)N1` (configuration not stated), the host macrophage viability came to 106%.

Turning to `Cc1cccc(C)c1NC(=O)C(C)n1cnc2onc(-c3ccc(Cl)cc3)c2c1=O` (configuration not stated), the host macrophage viability is 117%.

Turning to `CC(=O)Nc1ccc2c(=O)cc(-c3ccccc3F)oc2c1`, the host macrophage viability was determined as 109%.

As for `Cc1ccc(-c2nc3n(CC(=O)Nc4ccc(Br)cc4)c4c(c(=O)n3n2)CCC4)cc1`, the host macrophage viability was 127%.

As for `O=C(CSc1nc(=O)n2cc(Cl)ccc2n1)NC1CCCCC1`, the host macrophage viability stood at 107%.

Consider `O=C(COc1ccc2ccccc2c1)NCC1COC2(CCCC2)O1` (configuration not stated), for which the host macrophage viability turned out to be 100%. With `COc1cccc(C2C3=C(CCCC3=O)Nc3nc(SC(C)C)[nH]c(=O)c32)c1` (configuration not stated), the host macrophage viability is 129%.

Take `CCOc1ccc(NC(=O)CN2C(=O)C(c3ccc(OC)cc3)=NC23CCCCC3)cc1`: the host macrophage viability was determined as 125%. With `N#Cc1ccc(CSc2ncccc2C(=O)O)cc1`, the host macrophage viability stood at 126%.

Turning to `COc1ccc(CCn2c(C)c(C)n3c4c(=O)n(CC(N)=O)c(=O)n(C)c4nc23)cc1OC`, the host macrophage viability was 114%. For `Cc1ccc(NC(=O)CSCC(=O)NCC2OCCc3ccccc32)cc1C` (configuration not stated) the value was 110%; for `Cc1ccc(-c2nc(CCNC(=O)CCc3cc(Cl)no3)n[nH]2)cc1`, 121%; for `COc1cc(OC)c(NC(=O)C(C)Sc2nnc(-c3ccncc3)o2)cc1Cl` (configuration not stated), 83.5%.

For the compound `COC(=O)c1ccc(NC(=O)CSc2ncnc3sc4c(c23)CCC4)cc1`, the host macrophage viability worked out at 116%. In the case of `O=C(NC(=S)Nc1ccc(S(=O)(=O)N2CCc3ccccc32)cc1)c1cccs1`, the host macrophage viability came to 118%. With `Cc1ccc(C)c(S(=O)(=O)Nc2cc(Sc3nc[nH]n3)c(O)c3ccccc23)c1`, the host macrophage viability was 112%.

As to `CN(C)CCCN1C(=O)C(O)=C(C(=O)c2ccncc2)C1c1cccc(F)c1` (configuration not stated), the host macrophage viability is 110%.

With `COc1ccc(N2CCn3c(nc4ccccc43)C2)cc1NC(=O)Nc1ccccc1`, the host macrophage viability turned out to be 145%. With `O=C(c1cccs1)N1CCN=C1SCc1ccc(Cl)cc1`, the host macrophage viability was determined as 96.8%.

On to `CCCn1c(SCC(=O)Nc2ccccc2CC)nc2c(oc3ccccc32)c1=O`, for which the host macrophage viability was found to be 126%.

Regarding `CCOc1ccc2cc(C#N)c(SCC(=O)Nc3ccccc3C(F)(F)F)nc2c1`, the host macrophage viability amounted to 97.4%.

`COc1cc(C(=O)Oc2ccc3oc(=O)cc(-c4cc5ccccc5o4)c3c2)cc(OC)c1OC`: the host macrophage viability stood at 120%. With `CCOC(=O)c1sc(NC(=O)CSc2nc3c(=O)n(C)c(=O)n(C)c3n2C)nc1C`, the host macrophage viability was found to be 110%.

On to `CN(C)CCN(C(=O)C1CC(=O)Nc2ccccc21)C1CCCCC1` (configuration not stated), for which the host macrophage viability was determined as 105%.

Take `Cc1oc2ncnc(OC3CCN4Cc5ccccc5N=C34)c2c1C` (configuration not stated): the host macrophage viability stood at 123%. As for `CC1CC(NC(=O)C(=O)c2c[nH]c3ccccc23)CC(C)(C)C1` (configuration not stated), the host macrophage viability amounted to 117 ± 32%. For `Cc1cc(SCC(=O)OCc2ccccc2)nc(=O)[nH]1` the value was 122%.

`Cc1ccc(NC(=O)c2cnn3c(=O)c4c([nH]c23)CCC4)cc1`: the host macrophage viability was 105%. As for `O=C(Nc1ccc(F)c(Cl)c1)C(=O)Nc1ccc2c(c1)OCCO2`, the host macrophage viability worked out at 101%. Take `Cc1ccc(N2C(=O)SC(Nc3ccccc3C(=O)O)C2=O)cc1C` (configuration not stated): the host macrophage viability was found to be 99.3%. For `COc1ccccc1NC(=O)N1CCCC1C(=O)Nc1cccc2ccccc12` (configuration not stated) the value was 107%; for `Cc1ccc2sc(NC(=O)c3ccc(N4C(=O)CCC4=O)cc3)nc2c1C`, 120%; for `Cc1cc(C)n(-c2cc(N3CCN(c4cc(Cl)ccc4C)CC3)ncn2)n1`, 94.3%.

With `Cc1cc(NC(=O)c2cccc(C(F)(F)F)c2)nc2c1c(=O)oc1ccccc12`, the host macrophage viability turned out to be 104%.

With `Cc1ccc(-c2csc(-n3nc(C)c(CC(=O)N4CCN(c5ccc(F)cc5)CC4)c3O)n2)cc1`, the host macrophage viability is 117%. With `CCOC(=O)c1[nH]c2ccccc2c1NC(=S)Nc1cccc(C(F)(F)F)c1`, the host macrophage viability was determined as 105%.

`O=C1c2ccccc2-c2nn(C(=O)c3ccccc3)c3cccc1c23`: the host macrophage viability came out at 128%. `Cc1cc2cc3c(N)c(C(=O)Nc4nonc4C)sc3nc2cc1C`: the host macrophage viability came to 126%. For `CC(C)(C)n1nc2c(c1NC(=O)COc1ccccc1)CS(=O)(=O)C2` the value was 109%; for `O=C(Nc1ccc(F)cc1)N1CCC(c2nc3ccccc3o2)CC1`, 107%. On to `Cc1cc(Cl)ccc1Nc1nc(N)c(C(=O)c2c[nH]c3ccccc23)s1`, for which the host macrophage viability worked out at 133%.

As to `Cc1ccc(CNC(=O)c2ccc(Cn3c(=O)[nH]c4ccsc4c3=O)cc2)cc1`, the host macrophage viability stood at 125%.

For the compound `Cc1cc(NC(=O)CN2CC3CC(C2)c2cccc(=O)n2C3)nc2c1c(=O)oc1ccccc12` (configuration not stated), the host macrophage viability came to 121%. For the compound `COc1ccc(C2CC(=O)c3cnc(NC4OC(=O)c5ccccc54)nc3C2)cc1OC` (configuration not stated), the host macrophage viability came to 109%. Consider `CCOC(=O)c1c(NC(=S)Nc2c(C)n(C)n(-c3ccccc3)c2=O)sc2c1CCCC2`, for which the host macrophage viability came to 107%. Consider `O=C(Nc1cccc(F)c1)c1cccc(-c2ccc(N3CCCCC3)nn2)c1`, for which the host macrophage viability was 110%. With `O=C(c1ccc(S(=O)(=O)N2CCCCC2)cc1)N1CCN=C1SCc1ccc([N+](=O)[O-])cc1`, the host macrophage viability amounted to 91.6%. On to `COc1ccc(NC(=O)Cn2cc(C(=O)c3ccc(F)cc3)c(=O)c3ccccc32)c(OC)c1`, for which the host macrophage viability stood at 127%. Consider `Cc1cccc(NC(=O)c2sc3nc(-c4ccc(F)cc4)cn3c2C)c1C`, for which the host macrophage viability turned out to be 126%.

As to `Cc1nnc2ccc(-n3ncc4c3NC(=O)CC4c3ccc(OCc4ccc(F)cc4)cc3)nn12` (configuration not stated), the host macrophage viability worked out at 104%.
